Hit rate of the full screen: of about 300,000 compounds, about 3,700 (1.2%) were called active. The shares of active, inactive and inconclusive entries below differ from those in the screen. Calls follow the shape of the full dose curve; tested in HEK293 cells. A potency beside an inconclusive call is a rough fit, not a confirmed value.
test: qHTS for Inhibitors of binding or entry into cells for Lassa Virus; settings: Lassa virus pseudotype entry inhibition, cell reporter; activity change, negative = inhibition: at 37.9 µM (top of the series) unless noted; also: nearly all actives have a fitted effect of over 50% in size
% is scaled to controls: 0 for no effect and ±100 for the full control effect; potency is read from the fitted curve at half-maximal effect.

Row | SMILES | Potency | activity change, negative = inhibition
1 | COc1ccc(C(=O)Nc2ccc(C3(C#N)CCCC3)cc2)cc1 | inconclusive: 7.08 µM [inhibitor, partial curve, poor fit] | –
2 | Cc1nc(N)sc1C(=O)Nc1ccccc1 | inconclusive: 35.5 µM [inhibitor, single point] | –
3 | CC1CC(=O)Nc2ccccc2N1 (stereo unspecified) | inactive | –
4 | Cc1cc(C)c2cc3c(N)c(C(=O)N4CCc5ccccc5C4)sc3nc2c1 | inactive | –
5 | O=C(CSc1n[nH]c(-c2ccccc2O)n1)NC1CCCCC1 | inconclusive: 7.94 µM [inhibitor, partial curve, poor fit] | –
6 | Cc1cccc(CSCc2ccc(C(=O)NCCc3ccccc3)o2)c1 | inactive | –
7 | CC(C)(Oc1ccc(Cl)cc1)C(=O)NC1CCN(Cc2ccccc2)CC1 | inconclusive: 35.5 µM [inhibitor, single point] | –
8 | COCCNC(=S)N(C)C1(c2ccccc2Cl)CCCCC1=O (stereo unspecified) | inactive | –
9 | CC(=O)N(Cc1ccccc1)c1ncc2c(n1)c(=O)c(C#N)c1ccccn12 | inactive | –
10 | Cc1ccc(NC(=O)Cc2ccc(Cl)cc2)nc1 | inconclusive: 0.631 µM [activator, single point] | –
11 | CS(=O)(=O)c1ccc(Cl)c(C(=O)NC2CCSc3ccccc32)c1 (stereo unspecified) | inactive | –
12 | COc1ccc(CNC(=O)Cn2c(=O)cc(C)c3c(C)nn(-c4cccc(Cl)c4C)c32)cc1 | inconclusive: 6.31 µM [inhibitor, single point] | –
13 | CC(Cc1ccccc1)NC(=O)NC(C)Cc1ccccc1 (stereo unspecified) | inconclusive: 1.58 µM [activator, partial curve, poor fit] | –
14 | COc1ccc(-c2cc(C(=O)Nc3cccc(O)c3)on2)cc1OC | inconclusive: 17.8 µM [inhibitor, single point] | –
15 | COc1ccccc1-n1cc(C(=O)NCC(=O)N2CCN(c3ccccc3)CC2)c2ccccc2c1=O | inconclusive: 29.1 µM [activator, single point] | –
16 | CN(C(=S)Nc1cccnc1)c1ccc(O)cc1 | inactive | –
17 | Cc1[nH]c2ccccc2c1SCCNC(=O)c1ccc(Br)o1 | inconclusive: 29.1 µM [inhibitor, single point] | –
18 | COc1ccc(C(=O)NNC(=O)C(=O)NC2CCCCC2)cc1 | inactive | –
19 | COc1ccc(NC(=O)c2n[nH]c(=O)c3ccccc23)cc1S(=O)(=O)N1CCCCC1 | inconclusive: 17.8 µM [inhibitor, single point] | –
20 | CCOc1ccc(S(=O)(=O)NCCc2csc3nc(-c4ccc(F)cc4)nn23)cc1 | inconclusive: 4.47 µM [inhibitor, full curve] | –
21 | CCc1cc2c(SCC(=O)NC3CCS(=O)(=O)C3)ncnc2s1 (stereo unspecified) | inactive | –
22 | CCN(CC)C(=O)c1ccc(NC(=O)CCn2nc(-c3ccc(C)cc3)c3ccccc3c2=O)cc1 | inconclusive: 7.08 µM [inhibitor, partial curve, poor fit] | –
23 | Cc1ccc(CN2CCNC(=O)C2CC(=O)N(C)CCc2cnn(C)c2)cc1 (stereo unspecified) | inconclusive: 0.794 µM [inhibitor, partial curve, poor fit] | –

Exported as comma-separated lines: entries from further up
Row,SMILES,Potency,"activity change, negative = inhibition"
1,COc1ccc(C(=O)Nc2ccc(C3(C#N)CCCC3)cc2)cc1,"inconclusive: 7.08 µM [inhibitor, partial curve, poor fit]",–
2,Cc1nc(N)sc1C(=O)Nc1ccccc1,"inconclusive: 35.5 µM [inhibitor, single point]",–

The list continues.

Row | SMILES | Potency | activity change, negative = inhibition
24 | COc1ccc(-c2noc(CSc3nc4ccccc4c(=O)n3-c3ccccc3)n2)cc1OC | inconclusive: 31.6 µM [inhibitor, single point] | –
25 | CC(NC(=O)CCC(=O)c1ccc(F)cc1)C1CC2CCC1C2 (stereo unspecified) | – | inconclusive: 9.09% [activator] [at 46.1 µM]
26 | COc1cc(NC(=O)CNS(=O)(=O)c2cccs2)cc(OC)c1OC | inactive | –
27 | O=C(Nc1ccc(NC(=O)C2CC2)nc1)c1cccc(F)c1 | inactive | –
28 | CCOC(=O)C1=C(CSc2nnnn2C)N(C)C(=O)NC1c1ccccc1 (stereo unspecified) | inconclusive: 11.2 µM [activator, partial curve, poor fit] | –
29 | CNC(=O)Cn1c(C)cc(=O)c2cccc(OC)c21 | inconclusive: 11.2 µM [activator, single point] | –
30 | Cc1cc2c(NC(=O)Nc3ccccc3)cccc2nn1 | inactive | –
31 | Cc1ccccc1S(=O)(=O)NCc1cccnc1 | inactive | –
32 | O=C(N/N=C/c1cc([N+](=O)[O-])ccc1O)NC12CC3CC(CC(C3)C1)C2 | inactive | –
33 | Cc1ccc(C(=O)C2=C(O)C(=O)N(Cc3ccco3)C2c2cccc(Cl)c2)o1 (stereo unspecified) | inconclusive: 6.31 µM [inhibitor, single point] | –
34 | CCOc1ccccc1NC(=O)CSc1nncc2ccccc12 | inconclusive: 17.8 µM [inhibitor, partial curve, poor fit] | –
35 | CCN1CCCC(OC(=O)c2cc(-c3ccc(C)cc3)nc3ccccc23)C1 (stereo unspecified) | inconclusive: 28.2 µM [inhibitor, single point] | –
36 | CCC(C)NC(=O)c1cc2cc3ccc(OC)cc3nc2o1 (stereo unspecified) | inactive | –
37 | NN=C(NN=Cc1ccccc1)c1ccccc1 | inconclusive: 1.26 µM [activator, partial curve, poor fit] | –
38 | O=C(c1ccccc1F)N1CCN(C2CCC(c3ccccc3)CC2)CC1 (stereo unspecified) | inconclusive: 35.5 µM [inhibitor, single point] | –
39 | CC(=O)Oc1ccccc1C(=O)Oc1ccc(/C=N/n2cnnc2)cc1 | inactive | –
40 | Cc1ccc(N2C(N)=C(C#N)C(c3cccs3)C3=C2CC(C)(C)CC3=O)cc1 (stereo unspecified) | inconclusive: 20.6 µM [inhibitor, partial curve, poor fit] | –
41 | CN(CC(=O)Nc1ccc(F)cc1)c1ccc(S(=O)(=O)N2CCCCC2)cc1[N+](=O)[O-] | inconclusive: 10.3 µM [inhibitor, partial curve, poor fit] | –
42 | Cc1cccc(Cn2c(=O)n3nc(-c4ccccc4)nc3c3ccccc32)c1 | inactive | –
43 | CCCC(=O)Nc1nnc(S(=O)(=O)N(C)Cc2ccc(Cl)cc2)s1 | inactive | –
44 | COc1ccc(C2c3cc(OC)c(OC)cc3CC(=O)N2c2ccc(C)cc2)cc1 (stereo unspecified) | inconclusive: 5.01 µM [inhibitor, partial curve] | –
45 | O=[N+]([O-])c1ccc(CSc2nnc(Cc3ccccc3)n2-c2ccc(F)cc2)cc1 | inconclusive: 11.2 µM [inhibitor, partial curve, poor fit] | –
46 | N#CC1(NC(=O)COc2ccc3ccc(=O)oc3c2)CCCCC1 | inactive | –

From PubChem BioAssay AID540256 (National Center for Advancing Translational Sciences (NCATS), 2011)
